In this experiment the target is T1, BD-FAMA (Arabidopsis thaliana) (UniProt Q56YJ8).
T1 sequence: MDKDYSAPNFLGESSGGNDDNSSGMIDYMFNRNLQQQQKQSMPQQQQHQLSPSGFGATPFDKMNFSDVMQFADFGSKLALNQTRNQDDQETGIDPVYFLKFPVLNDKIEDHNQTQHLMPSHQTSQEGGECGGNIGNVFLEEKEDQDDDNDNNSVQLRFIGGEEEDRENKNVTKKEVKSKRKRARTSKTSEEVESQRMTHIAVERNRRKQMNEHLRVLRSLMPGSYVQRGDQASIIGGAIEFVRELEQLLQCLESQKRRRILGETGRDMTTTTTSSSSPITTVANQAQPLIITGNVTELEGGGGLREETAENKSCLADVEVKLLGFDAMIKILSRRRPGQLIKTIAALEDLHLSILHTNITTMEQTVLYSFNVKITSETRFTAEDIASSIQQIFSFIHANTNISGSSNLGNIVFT
Description: two-hybrid; yeast AH109, BD-FAMA (pXDGATcy86) with AD fusions (pGADT7-GW); growth on -LTHA with 3-AT against autoactivation of BD-FAMA, and X-alpha-Gal blue/white test.

Chains of the proteins cited; added tags and fusions are not shown.
UniProt Q8W234: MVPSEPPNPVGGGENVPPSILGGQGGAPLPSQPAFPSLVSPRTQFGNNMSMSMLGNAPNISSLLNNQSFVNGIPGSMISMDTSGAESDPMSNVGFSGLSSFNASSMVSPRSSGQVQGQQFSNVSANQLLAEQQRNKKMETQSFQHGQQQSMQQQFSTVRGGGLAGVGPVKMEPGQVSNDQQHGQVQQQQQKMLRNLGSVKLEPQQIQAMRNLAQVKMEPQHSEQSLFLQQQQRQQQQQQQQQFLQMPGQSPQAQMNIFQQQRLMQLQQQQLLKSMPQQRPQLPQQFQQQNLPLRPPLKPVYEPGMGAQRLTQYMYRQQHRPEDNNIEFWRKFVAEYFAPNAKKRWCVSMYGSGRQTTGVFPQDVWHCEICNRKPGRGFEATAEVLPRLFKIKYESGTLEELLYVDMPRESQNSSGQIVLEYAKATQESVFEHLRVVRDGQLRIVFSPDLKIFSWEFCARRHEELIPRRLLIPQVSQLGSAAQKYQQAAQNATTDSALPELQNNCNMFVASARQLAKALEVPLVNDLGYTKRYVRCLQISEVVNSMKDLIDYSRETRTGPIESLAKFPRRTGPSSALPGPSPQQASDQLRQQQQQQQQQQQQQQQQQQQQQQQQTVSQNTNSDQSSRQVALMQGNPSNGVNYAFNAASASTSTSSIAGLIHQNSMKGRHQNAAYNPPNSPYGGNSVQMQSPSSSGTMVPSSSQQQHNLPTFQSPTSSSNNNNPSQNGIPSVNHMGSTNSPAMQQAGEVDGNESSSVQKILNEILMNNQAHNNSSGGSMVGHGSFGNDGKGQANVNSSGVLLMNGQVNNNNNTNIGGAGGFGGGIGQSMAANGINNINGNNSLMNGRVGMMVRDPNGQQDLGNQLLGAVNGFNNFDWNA

Results are given in words; binding and its absence hold for the method and conditions named. Some entries that bind do so weakly or less than the wild type. Tags and fused reporters may be left off the sequences shown.

Turning to AD-SEU (from UniProt Q8W234 1-877), the binding entry is given as “binds”.

Source of the values: PMC6791687.
